Some results were stated once for a whole list of compounds, not compound by compound.
Assays:
Experiment in all cases: MIC, standard broth dilution method in microtitre
S. pyogenes 3565 = type: cell-based, Streptococcus pyogenes
Method: (§1) Using a standard broth dilution method in microtitre, compounds were tested for antibacterial activity. The compounds in the above examples gave minimum inhibitory concentrations (MICs) less than 1 microgram per millilitre against erythromycin-sensitive and erythromycin-resistant strains of Streptococcus pneumoniae and Streptococcus pyogenes.
(§2) In addition, the MIC (μg/mL) of test compounds against various organisms was determined including:
(§3) S. aureus Smith ATCC 13709, S. pneumoniae SP030, S. pyogenes 3565, E. faecalis ATCC 29212, H. influenzae ATCC 49247, M. catarrhalis ATCC 23246.

E. faecalis ATCC 29212 = type: cell-based, Enterococcus faecalis
Method: as §1, §2, §3

[1] = tested on: M. catarrhalis ATCC 23246; type: cell-based, Moraxella catarrhalis
Method: as §1, §2, §3

S. pneumoniae SP030 = type: cell-based, Streptococcus pneumoniae
Method: as §1, §2, §3

H. influenzae ATCC 49247 = type: cell-based, Haemophilus influenzae
Method: as §1, §2, §3

[2] = tested on: S. aureus Smith ATCC 13709; type: cell-based, Staphylococcus aureus
Method: as §1, §2, §3

[3] = tested on: erythromycin resistant strains of Streptococcus pneumoniae; type: cell-based
Method: as §1

[4] = tested on: erythromycin resistant strains of Streptococcus pyogenes; type: cell-based
Method: as §1

| Substance | MIC (S. pyogenes 3565) | MIC (E. faecalis ATCC 29212) | MIC [1] | MIC (S. pneumoniae SP030) | MIC (H. influenzae ATCC 49247) | MIC [2] | MIC [3] | MIC [4] |
| --- | --- | --- | --- | --- | --- | --- | --- | --- |
| 4″-O-{3-[2-(3-(2,2-Dimethyl-proplonyloxymethoxycarbonyl)-1-cyclopropyl-4-oxo-1,4-dihydro-6-quinolinylamino]ethoxy}propionyl)-azithromycin [Example 22] | ≤ 1 µg/mL | ≤ 1 µg/mL | ≤ 2 µg/mL | ≤ 1 µg/mL | ≤ 2 µg/mL | ≤ 1 µg/mL | – | – |
| 4″-O-{3-[2-(3-Carboxy-1-cyclopropyl-4-oxo-1,4-dihydro-6-quinolinylamino)ethoxy]propionyl}-6-O-methyl-11-desoxy-11-(R)-amino-erythromycin A11,12-carbamate [Example 31] | ≤ 1 µg/mL | ≤ 1 µg/mL | ≤ 2 µg/mL | ≤ 1 µg/mL | ≤ 2 µg/mL | ≤ 1 µg/mL | – | – |
| 4″-O-{3-[2-(3-Carboxy-1-cyclopropyl-4-oxo-1,4-dihydro-quinolin-6-yloxy)ethoxy]propionyl}-6-O-methyl-11-desoxy-11-(R)-amino-erythromycin A11,12-carbamate [Example 33] | ≤ 1 µg/mL | ≤ 1 µg/mL | ≤ 2 µg/mL | ≤ 1 µg/mL | ≤ 2 µg/mL | ≤ 1 µg/mL | – | – |
| 4″-O-{3-[2-(3-Carboxy-7-chloro-1-cyclopropyl-4-oxo-1,4-dihydro-quinolin-6-yloxy)ethoxy]propionyl}-6-O-methyl-11-desoxy-11-(R)-amino-erythromycin A11,12-carbamate [Example 32] | ≤ 1 µg/mL | ≤ 1 µg/mL | – | ≤ 1 µg/mL | – | ≤ 1 µg/mL | ≤ 0.25 µg/mL | ≤ 0.25 µg/mL |
